Where a sequence shows no end group, the ends are not given.
Assay: peptide synthesis
Conditions: purification step, chloride salt

## YGRKKRRQRRRKLSSIESDV
210 nm
  final HPLC purity: 99.01%
  step yield: 78%

Reference: patent publication US11266714B2 (NoNO Inc., priority 2014, dated 2022)
